Measured values published in PubChem BioAssay AID504834 (National Center for Advancing Translational Sciences (NCATS), 2011).
About 22,000 (6.9%) of roughly 320,000 compounds were called active. The shares of active, inactive and inconclusive entries below differ from those in the screen. The call rests on the fitted dose curve; in most records, active means well fitted inhibition curve with a large enough effect; inconclusive means small, poorly fitted or top-dose-only effect, or another doubt; inactive means no such curve, though single readings can be large or run the other way. Potencies of inconclusive entries are doubtful fits and often do not repeat.

Assay: Primary qHTS for delayed death inhibitors of the malarial parasite plastid, 96 hour incubation
Conditions: P. falciparum luciferase reporter growth; series mostly up to 28.7 µM; activity change, negative = inhibition: at the top concentration
Outline: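 Two-generation exposure (96 h) targets delayed-death phenotype. Reporter parasites carrying integrated firefly luciferase, in red cells at 2% hematocrit and 0.05% parasitemia final, kept at 37 C, 5% CO2; luminescence loss indicates inhibition.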
On the % scale 0 is the no-effect control and ±100 the full control effect; potency means the concentration at half of the fitted maximal effect.

Row | SMILES | Potency | activity change, negative = inhibition
1 | CC1(C(=O)NNC(=S)NCC2CCCO2)CC1(Cl)Cl (stereo unspecified) | inconclusive: 18.5 µM [inhibitor, single point] | 
2 | CN1CCC(N(CCc2ccccc2)C(=O)CCC(=O)O)CC1 |  | inactive: 1.8%
3 | O=C(Nc1nc2cc(Cl)ccc2s1)C1CCCN(S(=O)(=O)c2cccc3cccnc23)C1 (stereo unspecified) | active: 11.7 µM | 
4 | O=C(CCCn1c(=O)[nH]c2cc(Cl)ccc2c1=O)N1CCN(c2ccc([N+](=O)[O-])cc2)CC1 | inconclusive: 18.5 µM [inhibitor, single point] | 
5 | Cc1cccc(-c2ccc3ncnc(NCc4cc(C)cs4)c3c2)c1 | active: 9.28 µM | 
6 | CC1(C)CC(=O)c2c(nc(SCC(=O)Nc3nsc(-c4ccccc4)n3)c(C#N)c2-c2ccccc2)C1 | active: 14.7 µM | 
7 | Cc1cc(C)c2cc(C#N)c(SCC(=O)Nc3ccc4c(c3)OCO4)nc2c1 | inconclusive: 11.7 µM [inhibitor, partial curve] | 
8 | CCN(CC)S(=O)(=O)c1cccc(-c2n[nH]c(=S)n2/N=C/c2ccc(OC)cc2)c1 | inconclusive: 18.5 µM [inhibitor, single point] | 
9 | COc1ccc(CC(=O)NC2CCSc3ccccc32)cc1OC (stereo unspecified) | inconclusive: 18.5 µM [inhibitor, single point] | 
10 | CCOc1ccc(NC(=O)N(CCN(C)C)C(C)c2ccncc2)cc1 (stereo unspecified) |  | inactive: 2.66%
11 | Cc1cc(C(=O)Nc2ccccc2C(=O)O)c(C)o1 | inconclusive: 2.94 µM [inhibitor, partial curve] | 
12 | COc1cccc(NC(=O)CN(C)C(=O)CSc2nc(C)cc(C)n2)c1 | inconclusive: 9.28 µM [inhibitor, partial curve, poor fit] | 
13 | O=C(Cn1c(=O)oc2cc(S(=O)(=O)N3CCCC3)ccc21)NCc1ccccn1 | inconclusive: 11.7 µM [inhibitor, single point] | 
14 | CC(Sc1nnc(COc2ccc(Cl)cc2)n1-c1ccccc1)C(=O)O (stereo unspecified) | inconclusive: 10.4 µM [inhibitor, single point] | 
15 | O=[N+]([O-])c1ccccc1CNC1CCCc2ccccc21 (stereo unspecified) |  | inactive: -33.3%
16 | CCOC(=O)COc1ccc2c(c1)C(=O)CC1(CCCCC1)O2 | inconclusive: 9.28 µM [inhibitor, single point] | 
17 | CCCn1c(-c2cccnc2Cl)nc2cc(Cl)c(Cl)cc21 | inconclusive: 1.31 µM [inhibitor, partial curve, poor fit] | 
18 | CC(C)[C@H](NC(=O)[C@@H]1CSC2c3ccccc3C(=O)N21)C(=O)NCC1CCCO1 (stereo partly specified) | inconclusive: 18.5 µM [inhibitor, single point] | 
19 | COc1ccc(NC2CCCN(C(=O)COc3ccc(Cl)cc3C)C2)cc1OC (stereo unspecified) | inconclusive: 20.8 µM [inhibitor, partial curve, poor fit] | 
20 | CCc1ccc(NC(=O)c2cnn3ccccc23)cc1 | active: 1.17 µM | 
21 | O=C(CS(=O)(=O)c1cn(CC(=O)N2CCCC2)c2ccccc12)Nc1ccccc1F | inconclusive: 8.28 µM [inhibitor, single point] | 
22 | O=S(=O)(c1cccc(-c2nc3n(n2)Cc2ccccc2-3)c1)N1CCCCC1 | inconclusive: 18.5 µM [inhibitor, single point] | 
23 | O=C(NCCCN1CCOCC1)c1cccnc1SCc1ccccc1Cl |  | inactive: 3.98%
24 | Cc1nc2nc(SCC(=O)NCCCN3CCCCC3)nn2c(C)c1Cc1ccccc1 |  | inactive: -17.9%

Some values from the list.
Potency, CCc1ccc(NC(=O)c2cnn3ccccc23)cc1 is entered as active: 1.17 µM
Potency, CC1(C)CC(=O)c2c(nc(SCC(=O)Nc3nsc(-c4ccccc4)n3)c(C#N)c2-c2ccccc2)C1 is entered as active: 14.7 µM
Potency, CC1(C(=O)NNC(=S)NCC2CCCO2)CC1(Cl)Cl (stereo unspecified) is entered as inconclusive: 18.5 µM [inhibitor, single point]
activity change, negative = inhibition, CN1CCC(N(CCc2ccccc2)C(=O)CCC(=O)O)CC1 is entered as inactive: 1.8%
Potency, CCN(CC)S(=O)(=O)c1cccc(-c2n[nH]c(=S)n2/N=C/c2ccc(OC)cc2)c1 is entered as inconclusive: 18.5 µM [inhibitor, single point]
Potency, COc1cccc(NC(=O)CN(C)C(=O)CSc2nc(C)cc(C)n2)c1 is entered as inconclusive: 9.28 µM [inhibitor, partial curve, poor fit]

More structures follow:

Row | SMILES | Potency | activity change, negative = inhibition
25 | S=C(NCc1cccs1)Nc1ccc(Br)cc1Cl |  | inactive: -4.78%
26 | Cc1cc(C)n(-c2nc(-n3nc(C)cc3C)c3c4c(sc3n2)COC(C)(C)C4)n1 | active: 1.04 µM | 
27 | Cc1cc(OCc2cc(C(=O)NC3CCC3)no2)cc(C)c1Cl |  | inactive: -2.14%
28 | CC(C)c1ccc(NC2CCCN(C(=O)CN3CCOC3=O)C2)cc1 (stereo unspecified) | inconclusive: 18.5 µM [inhibitor, single point] | 
29 | O=C(NCCCN1CCCCC1)c1ccc2c(c1)ncn2C1CCCC1 |  | inactive: 98.9%
30 | c1ccc(COCC2CCNCC2)cc1 | inconclusive: 1.85 µM [inhibitor, partial curve, poor fit] | 
31 | CC(=O)Nc1ccc(NCc2cccs2)cc1 | inconclusive: 18.5 µM [inhibitor, single point] | 
32 | CCN1CCN(CCC(=O)Nc2cccc(OC)c2)CC1 | inconclusive: 0.522 µM [inhibitor, full curve, poor fit] | 
33 | O=C(C1CCOCC1)N1CCCC(N2CCN(c3cccc(Cl)c3)CC2)C1 (stereo unspecified) | inconclusive: 11.7 µM [inhibitor, single point] | 
34 | Cc1ccc(S(=O)(=O)NNC(=O)c2cccnc2)cc1 | inconclusive: 13.1 µM [inhibitor, partial curve, poor fit] | 
35 | CC1(C)CC(=O)c2sc(NC(=O)c3ccco3)nc2C1 |  | inactive: 84.5%
36 | Cc1onc(-c2ccccc2Cl)c1C(=O)OCc1nnc(-c2ccccc2)o1 | inconclusive: 5.22 µM [inhibitor, single point] | 
37 | COn1c(SCc2cccnc2)nc2ccccc2c1=O | inconclusive: 0.0928 µM [inhibitor, full curve, poor fit] | 
38 | CCOc1ccc(NC(=O)CN(C)C(=O)CC2CCCC2)cc1OCC | active: 13.1 µM | 
39 | O=C(CCc1ccccn1)NC1CCCc2c1cnn2-c1ccc(F)cc1F (stereo unspecified) |  | inactive: 31.9%
40 | CC(Sc1nnnn1-c1ccc(O)cc1)C(=O)NNC(=O)c1ccc(F)cc1 (stereo unspecified) |  | inactive: -44.9%
41 | CS(=O)(=O)C1=NSC2=NC(=O)/C(=C\c3ccc(OC(=O)c4ccco4)cc3)C(=N)N21 |  | inactive: 29.1%
42 | CCOP(=S)(NN(Cc1ccccc1)C(=O)c1ccccc1)OCC | inconclusive: 18.5 µM [inhibitor, single point] | 
43 | CCc1cc(=O)oc2cc(OC(C)C(=O)O)c(Cl)cc12 (stereo unspecified) |  | inactive: 8.86% [at 5.75 µM]
44 | Cc1cc(Cl)ccc1NC(=O)CCC(=O)N/N=C/c1cccnc1 | inconclusive: 0.0415 µM [inhibitor, full curve, poor fit] | 
45 | COC(=O)c1c(NC(C)=O)sc2c1CCCC2 | inconclusive: 11.7 µM [inhibitor, partial curve, poor fit] | 
46 | CCOC(=O)c1cc(-c2nnc(SCC(=O)Nc3ccc(F)cc3)o2)c(C)nc1C | active: 11.7 µM | 
47 | CCN1/C(=C\C(C)=O)Sc2ccc(OC)cc21 |  | inactive: -25.2%
48 | CC(=O)NCCC(=O)Nc1cc(S(=O)(=O)N2CCCCC2)ccc1N1CCN(C)CC1 | inconclusive: 18.5 µM [inhibitor, single point] | 

Row | SMILES | Potency | activity change, negative = inhibition
49 | O=C(CSc1ccsc1[N+](=O)[O-])NCCc1ccccc1 |  | inactive: 0%
50 | COc1ccc(-c2csc(Nc3ccc(S(=O)(=O)Nc4cc(C)on4)cc3)n2)cc1C | inconclusive: 2.62 µM [inhibitor, full curve, poor fit] | 
51 | Cc1cccc(NC(=O)CN2C(=O)N/C(=C\c3cccn3-c3cccc(C(=O)O)c3)C2=O)c1 | inconclusive: 9.28 µM [inhibitor, single point] | 
52 | O=C(COC(=O)c1ccccc1F)Nc1cccnc1Cl |  | inactive: -0.0454%
53 | COc1ccc(NC(=S)NCc2cccs2)c(OC)c1 | inconclusive: 11.7 µM [inhibitor, single point] | 
54 | N#Cc1c2n(c3c(=S)nc[nH]c13)CCCCC2 |  | inactive: 94.1%
55 | C#CCNC(=O)C1=C[C@@H](c2cn(C(C)=O)c3ccccc23)C[C@@H](OCCCCO)O1 | inconclusive: 10.4 µM [inhibitor, single point] | 
56 | COCCCn1c2nc3ccccc3nc2c2c(=O)n(-c3ccccc3OC)cnc21 |  | inactive: 8.29%
57 | CCc1c(C(=O)Nc2ccc(S(=O)(=O)N3CCOCC3)cc2)csc1C |  | inactive: 16%
58 | COc1ccc(S(=O)(=O)N2CCCCCC2)cc1NS(=O)(=O)c1cc(C(=O)O)cc(C)c1C | inconclusive: 18.5 µM [inhibitor, single point] | 
59 | CC(NC(=O)C1CCCN1C(=O)OCc1ccccc1)c1ccccc1 (stereo unspecified) | inconclusive: 0.415 µM [inhibitor, partial curve] | 
60 | CC(C)(C)C(=O)C(Cc1ccccc1Cl)n1cncn1 (stereo unspecified) | inconclusive: 10.4 µM [inhibitor, partial curve, poor fit] | 
61 | CC1(c2ccc(OCC#N)cc2)C=C(c2ccc(OCC#N)cc2)n2nc(C(F)(F)F)nc2N1 (stereo unspecified) | active: 7.38 µM | 
62 | CCN(CC)C(=O)CSc1nnc2c3ccccc3n(C)c2n1 | inconclusive: 18.5 µM [inhibitor, single point] | 
63 | CSc1ccc(/C=C(\C#N)C(=O)Nc2cccc(C)c2)cc1 | inconclusive: 2.94 µM [inhibitor, partial curve, poor fit] | 
64 | CCNC(=O)CC1C(=O)N(CC)C(=S)N1NC(=O)c1ccccc1 (stereo unspecified) | inconclusive: 0.262 µM [inhibitor, partial curve, poor fit] | 
65 | CCOc1ccc(C(=O)NN2C(=O)C3C4C=CC(O4)C3C2=O)cc1 (stereo unspecified) |  | inactive: 83.4%
66 | Cc1cccc(NC(=O)CSc2nnc(C)n2Cc2ccccc2)c1 | inconclusive: 0.0026 µM [inhibitor, full curve, poor fit] | 
67 | Cc1cccc(C)c1NC1=NC(=S)N(c2ccccc2)C12CCOC(C)(C)C2 (stereo unspecified) | inconclusive: 9.28 µM [inhibitor, partial curve, poor fit] | 
68 | O=C(NCc1cccnc1)/C(=C/c1ccccc1)NC(=O)c1ccccc1 |  | inactive: -3%
69 | COc1ccc(CCNC(=O)C(=O)NCc2ccccc2)cc1OC | inconclusive: 0.0294 µM [inhibitor, full curve] | 
70 | COc1ccc(C(=O)NC(=S)N2CCCCC2c2cccnc2)cc1OC (stereo unspecified) | inconclusive: 16.5 µM [inhibitor, partial curve, poor fit] | 
71 | CCOC(=O)C1CCCN(c2c(NCCc3ccc(Cl)cc3)c(=O)c2=O)C1 (stereo unspecified) | inconclusive: 10.4 µM [inhibitor, partial curve, poor fit] | 
